Values quoted from earlier work, collected in patent EP1182931B1, “STABLE BIOCIDAL COMPOSITIONS” (NUFARM LIMITED, priority 1999, dated 2000).
At least one compound was matched to its structure with a doubt left.

How the values were obtained:
Conditions in all cases: Spectrum of Activity; cited from earlier work
Lung-worms = system: Lung-worms
Gastrointestinal Worms = system: Gastrointestinal Worms
Lice = system: Lice
Ticks = system: Ticks
Flies = system: Flies
Mites = system: Mites
Fluke = system: Fluke
Tapeworms = system: Tapeworms

Row | SMILES | Nematodes Lung-worms (Lung-worms) | Nematodes Gastrointestinal Worms (Gastrointestinal Worms) | Ectoparasites Lice (Lice) | Ectoparasites Ticks (Ticks) | Ectoparasites Flies (Flies) | Ectoparasites Mites (Mites) | Trematodes Fluke (Fluke) | Cestodes Tapeworms (Tapeworms)
1 | CC(C)OC(=O)Nc1ccc2nc(-c3cscn3)[nH]c2c1 [Cambendazole] | + | + |  |  |  |  |  | 
2 | CCOP(=S)(OCC)Oc1ccc2c(C)c(Cl)c(=O)oc2c1 [Cumaphos] |  |  | + | + | + | + |  | 
3 | CO[C@H]1C[C@H](O[C@H]2[C@H](C)O[C@@H](O[C@@H]3/C(C)=C/C[C@@H]4C[C@@H](C[C@]5(C=C[C@H](C)[C@@H](C6CCCCC6)O5)O4)OC(=O)[C@@H]4C=C(C)[C@@H](O)[C@H]5OC/C(=C\C=C\[C@@H]3C)[C@]54O)C[C@@H]2OC)O[C@@H](C)[C@@H]1O [Doramectin] | + | + | + | + | + | + | - | -
4 | COC(=O)Nc1nc2cc(Sc3ccccc3)ccc2[nH]1 [Fendendazole] | + | + | - | - | - | - | + | 
5 | CC1(C)C(C=C(Cl)c2ccc(Cl)cc2)C1C(=O)OC(C#N)c1ccc(F)c(Oc2ccccc2)c1 (centres unmarked) [Flumethrin] |  |  |  | + |  |  |  | 
6 | CCOP(=O)(OCC)ON1C(=O)c2cccc3cccc(c23)C1=O [Napthalophos] |  | + |  |  |  |  |  | 
7 | CCCSc1ccc([N+](=O)[O-])c(N/C(=N/CCS(=O)(=O)O)NC(=O)OC)c1 [Netobimin] | + | + |  |  |  |  |  | 
8 | N#Cc1cc(I)c(O)c([N+](=O)[O-])c1 [Nitroxyinil] | - |  |  |  | + |  | + | -
9 | O=C(Nc1cc(Cl)cc(Cl)c1O)c1c(O)c(Cl)cc(Cl)c1Cl [Oxydosanide] |  |  |  |  |  |  | + | 
10 | CCCCc1ccc2[nH]c(NC(=O)OC)nc2c1 [Parrbendazole] | + | + |  |  |  |  | - | 
11 | COP(=O)(OC)C(O)C(Cl)(Cl)Cl (centres unmarked) [Trichlorphon] |  | + |  |  | + |  |  | 
